Out of some 330,000 compounds screened, about 7,700 (2.3%) were called active. The inconclusive results got no clear call from the source; some entries with a clear call stand among them for comparison. The call rests on the fitted dose curve; in most records, active means well fitted inhibition curve with a large enough effect; inconclusive means small, poorly fitted or top-dose-only effect, or effect the other way; inactive means flat fitted curve, though single readings scatter. Where the call is inconclusive, the potency comes from a doubtful curve fit.
assay: qHTS screen for small molecules that inhibit ELG1-dependent DNA repair in human embryonic kidney (HEK293T) cells expressing luciferase-tagged ELG1; conditions: HEK293T ELG1-luciferase reporter, luminescence, 16 h, DNA damage induced by 5-fluorouridine; series mostly up to 46.1 µM; further: nearly all actives have a fitted effect of over 55% in size
Procedure, shortened: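 5-Fluorouridine DNA damage + compound/DMSO, 2,000 cells/well, 16 h, 37 °C/5% CO2. ONE-Glo, 30 min RT, luminescence. Readout = decrease in reporter signal.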
Potency means the concentration at half of the fitted maximal effect.

Structure (SMILES)	Potency
CC(C)CCNC(=O)NC(=O)COc1ccccc1C#N	inconclusive: 17.8 µM [activator, single point]
CNC(=O)c1[nH]cnc1C(=O)Nc1ccccn1	inconclusive: 18.3 µM [activator, single point]
COc1ccc(OC)c(N(C)S(=O)(=O)c2ccc3c(c2)N(C(C)=O)CCO3)c1	inactive
CCOc1ccc(NC(=O)C2CCCN(S(=O)(=O)c3ccc(-n4cnnn4)cc3)C2)cc1 (stereo not drawn)	inactive
COc1ccc(C(=O)COC(=O)c2ccccc2NS(=O)(=O)c2ccc(O)c([N+](=O)[O-])c2)cc1	inconclusive: 18.3 µM [inhibitor, partial curve, poor fit]
Cc1ccc(S(=O)(=O)N(C)CCCC(=O)NCc2ccc3c(c2)OCO3)cc1	inactive
C#Cc1ccc([C@H]2C=C(C(=O)O)O[C@@H](OCc3ccc(CO)cc3)C2)cc1	inactive
CC(=O)NCCCOc1ccc([N+](=O)[O-])cc1Cl	inconclusive: 23.1 µM [activator, single point]
CC1CCCCC1NC1=NCCCS1 (stereo not drawn)	inactive
Cc1nn2c(-c3ccc(Cl)cc3)ccnc2c1-c1ccccc1	inconclusive: 6.51 µM [activator, partial curve]
O=C(Cn1c(=O)[nH]c2ccccc2c1=O)N1CCN(c2cccc(Cl)c2)CC1	inactive
Cc1nn(-c2ccccn2)c2nc(-c3cccs3)cc(C(=O)N3CCOCC3)c12	inconclusive: 29.1 µM [inhibitor, single point]
CCc1ccc(/C=C\C(=O)N2CCc3ccccc3C2)cc1	inconclusive: 20.6 µM [activator, partial curve, poor fit]
Cc1ccccc1C(=O)Nc1ccc(Br)c(C)n1	inconclusive: 11.6 µM [activator, partial curve]
COc1ccccc1CNC(=O)c1cn(C)c(=O)c2cc(OC)c(OC)cc12	inactive
Cc1ccc(C(=O)N/C(=C/C=C\c2ccccc2)C(=O)NCc2ccco2)cc1	inconclusive: 29.1 µM [inhibitor, single point]
CC(=O)Nc1ccc(NC(=O)COc2ccc(-c3ccccc3)cc2)cc1	inconclusive: 16.4 µM [activator, single point]
Cc1cccc(-c2noc(CN(C(=O)/C=C/c3ccccc3Cl)C(C)C)n2)c1	inactive
CCCCCn1c(=O)[nH]c2cc(C(=O)NCCN(CC)CC)ccc2c1=O	inactive
O=C(c1ccco1)N1CCN(c2nc(C3CC3)nc3sc4c(c23)CCCC4)CC1	inconclusive: 29.1 µM [inhibitor, single point]
CCOC(=O)N1CCN(C(=O)c2cccc(N3C(=O)NC4CC3(C)Oc3ccc(Cl)cc34)c2)CC1 (stereo not drawn)	inconclusive: 0.58 µM [inhibitor, partial curve, poor fit]
Clc1ccc(Nc2c3c(nc4ncnn24)CCC3)cc1	inconclusive: 29.1 µM [inhibitor, single point]
Cc1cc(-c2ccccc2)nnc1NCCN1CCOCC1	inactive
O=C(CN1CCC(n2nnc3cc(F)ccc32)CC1)NCCc1nc2ccccc2[nH]1	inconclusive: 29.1 µM [inhibitor, single point]
Cn1c(C(=O)NCC2CCCO2)cc2c(=O)[nH]c3ccccc3c21 (stereo not drawn)	inactive

Part of the list above in order of heavy-atom count, falling.
Structure (SMILES)	Potency
COc1ccc(C(=O)COC(=O)c2ccccc2NS(=O)(=O)c2ccc(O)c([N+](=O)[O-])c2)cc1	inconclusive: 18.3 µM [inhibitor, partial curve, poor fit]
CCOc1ccc(NC(=O)C2CCCN(S(=O)(=O)c3ccc(-n4cnnn4)cc3)C2)cc1 (stereo not drawn)	inactive
Cc1ccc(S(=O)(=O)N(C)CCCC(=O)NCc2ccc3c(c2)OCO3)cc1	inactive
Cc1cc(-c2ccccc2)nnc1NCCN1CCOCC1	inactive

The list continues.

Structure (SMILES)	Potency
CCn1c(Cc2ccccc2)nnc1SCC(=O)c1c(N)n(C2CC2)c(=O)[nH]c1=O	inactive
C=CCC[C@@H](Cc1ccc(F)cc1)C(=O)OC[C@@H](Cc1ccccc1)NC(=O)[C@H](CC=C)CC(=O)NCCO	inactive
COc1ccc2nc(NC(=O)C3CCCN(S(=O)(=O)c4cccc5nonc45)C3)sc2c1 (stereo not drawn)	active: 25.9 µM
CCOCCCNC(=O)c1ccc2c(=O)n(CCCOCC)c(=S)[nH]c2c1	inconclusive: 32.6 µM [inhibitor, partial curve, poor fit]
O=C(Nc1cccc(Cl)c1)Nc1cccc(Cl)c1	inactive
CCOC(=O)C1=CN(Cc2ccco2)S(=O)(=O)N(CC)C1c1ccccc1 (stereo not drawn)	inactive
Cc1cc(C(=O)COC(=O)c2ccc(Br)o2)c(C)n1C	inconclusive: 23.1 µM [activator, partial curve]
COc1ccc(Nc2cc(Cl)nc(N)n2)cc1OC	inactive
COc1ccc(-c2nnc(NC(=O)c3ccc(S(=O)(=O)N(C)CC4CCCO4)cc3)o2)c(OC)c1 (stereo not drawn)	inconclusive: 8.2 µM [inhibitor, partial curve]
CC1CC(C)CN(CCCNC(=O)CCC(=O)N2CC(C)Oc3ccccc32)C1 (stereo not drawn)	inactive
CCc1ccc(OCC(=O)NNC(=O)c2cc(S(=O)(=O)N(C)C)ccc2N2CCCC2)cc1	inactive
CC(NC(=O)CSC1=NCCS1)c1ccccc1 (stereo not drawn)	inactive
COC(=O)C(Cc1ccc(O)cc1)NC(=O)c1ccccc1 (stereo not drawn)	inactive
C/C(=N\N=C1\NC(=O)C(CC(=O)Nc2ccc(C)c(Cl)c2)S1)C(C)(C)C (stereo not drawn)	inactive
Cc1cc(C)cc(NC(=O)c2ccc3nc[nH]c3c2)c1	inconclusive: 23.1 µM [activator, single point]
c1ccc(-c2nnc(-c3ccncc3)o2)cc1	inconclusive: 20.6 µM [activator, partial curve]
COCCN1Cc2cccc(C(=O)Nc3ccc(-c4nc5ccccc5[nH]4)cc3)c2C1=O	inconclusive: 16.4 µM [activator, partial curve]
COc1ccc([C@H]2CC(=O)C=C(c3cccc(Br)c3)C2)cc1OC	active: 18.3 µM
CC1CCc2nc(NC(=O)Cc3cccs3)sc2C1 (stereo not drawn)	inconclusive: 5.8 µM [activator, full curve]
COc1ccccc1-c1ocnc1C(=O)N1CCN(C(=O)C(c2ccccc2)c2ccccc2)CC1	inactive
N#Cc1c(-c2ccc(F)cc2)nc2n(c1=O)CCS2	inconclusive: 29.1 µM [activator, single point]
COc1cccc(N2CC(C(=O)Nc3ccc(C(=O)OC(C)C)cc3)CC2=O)c1 (stereo not drawn)	inconclusive: 18.4 µM [inhibitor, single point]
O=C(N/N=C1\C(=O)c2cccc3cccc1c23)c1ccc(O)cc1	inconclusive: 11.6 µM [activator, partial curve, poor fit]
COC(=O)N(NC(=O)C(O)(C(C)C)C(C)C)c1ccccc1	inconclusive: 5.8 µM [activator, single point]
Cc1cc(Nc2nc3ccccc3nc2Cl)n(-c2ccc([N+](=O)[O-])cc2)n1	active: 20.6 µM

Structure (SMILES)	Potency
Cc1ccc(N/C(N)=N/c2nc(CSc3ccc(C)cc3)cc(=O)[nH]2)cc1	inconclusive: 1.46 µM [inhibitor, full curve, poor fit]
CCOc1c(Br)cc(C2CC(=O)Nc3cc(OC)c(OC)cc32)cc1OC (stereo not drawn)	inactive
O=C(Cn1nnc(-c2cccs2)n1)NCCc1ccccc1	inconclusive: 18.4 µM [activator, partial curve, poor fit]
COc1ccc(CC(=O)Nc2nc(-c3cc(OC)ccc3OC)cs2)cc1	inconclusive: 16.4 µM [inhibitor, single point]
CNc1nc(Cl)c(SC)c(N2CCOCC2)n1	inactive
CC(=O)c1ccc(NCC2COc3ccccc3O2)c([N+](=O)[O-])c1 (stereo not drawn)	inconclusive: 2.31 µM [activator, partial curve]
CC(CCc1ccc(O)cc1)NCc1ccc(Br)cc1 (stereo not drawn)	inactive
Cc1cc([N+](=O)[O-])ccc1NC(=O)c1csc(C)c1C	inconclusive: 5.8 µM [activator, partial curve]
O=C(Nc1nc2c(s1)CN(Cc1ccccc1)CC2)C1CCCC1	inconclusive: 16.4 µM [activator, partial curve]
COc1cccc(CC2(CO)CCCN(Cc3ccc(-c4ccco4)cc3)C2)c1 (stereo not drawn)	inactive
COc1cccc(CN2C(=O)C(C)N(C(=O)c3ccccc3)c3ccccc32)c1 (stereo not drawn)	inconclusive: 7.3 µM [inhibitor, partial curve]
O=C(NCC(c1ccco1)N1CCCC1)c1ccccc1F (stereo not drawn)	inconclusive: 29.1 µM [activator, partial curve, poor fit]
Cc1csc(NC(=O)CSc2nc(C)nc3c2c(=O)n(C)c(=O)n3C)n1	active: 20.6 µM
COc1ccc(C(=O)CSc2cc(C)nc3nc(C)nn23)cc1OC	inconclusive: 23.1 µM [inhibitor, partial curve, poor fit]
CCCN(CCC)C(=O)COc1cc(=O)n(CC)c2ccccc12	inconclusive: 16.4 µM [activator, partial curve, poor fit]
COc1cccc(C(=O)Nc2ccc3[nH]c(=O)[nH]c3c2)c1OC	inconclusive: 11.6 µM [activator, partial curve]
Cc1ccc(Cn2ccc(NC(=O)c3cc4nc(-c5ccco5)cc(C(F)(F)F)n4n3)n2)cc1	inactive
CCOC(=O)CSc1nc2sc(C)c(C)c2c(=O)[nH]1	inconclusive: 0.82 µM [inhibitor, partial curve, poor fit]
Cc1cccn2cc(CSc3ccccc3N)nc12	inconclusive: 7.31 µM [activator, partial curve]
Cc1nn(Cc2ccccc2)c2c1C(c1cccc(Cl)c1)C(C#N)=C(N)O2 (stereo not drawn)	inconclusive: 29.1 µM [activator, partial curve, poor fit]
COc1cccc(NC(=O)c2ccc(CN3CCN(c4ccccc4)CC3)cc2)c1	inactive
CCn1c(SCC(=O)Nc2ccc(C)cc2)nnc1-c1ccc(O)cc1	inconclusive: 20.6 µM [inhibitor, partial curve]
CCC(C)(C)n1nnnc1CN1CCC(NC(=O)c2ccc(Br)cc2)CC1	inconclusive: 20.6 µM [inhibitor, single point]

Source: PubChem BioAssay AID504467 (National Center for Advancing Translational Sciences (NCATS), 2011)
